# Source: patent US6369109B1, “Betulinic acid and derivatives thereof useful for the treatment of neuroectodermal tumor” (Deutsches Krebsforschungszentrum Stiftung des Offentlichen …, priority 1998, dated 2002)
# “Also recorded” adds a separate entry of the source. For at least one compound, name, drawing or mass did not settle the structure.
# System: isolated nuclei with mitochondria from SHEP cells
# Experiment: Cell-free system of apoptosis: nuclear fragmentation of isolated nuclei
# Type: biochemical, human
# Conditions: 10 μg/ml betulinic acid or 0.5 μg/ml doxorubicin; FIG. 8C, 12C
# Protocol: For determination of nuclear fragmentation, nuclei (10^3/μl) were incubated with mitochondria (1 μg/μl) in buffer D (10 mM HEPES, pH 7.4, 50 mM NaCl, 2 mM MgCl2, 5 mM EGTA, 1 mM DDT, 2 mM ATP, 10 mM phosphocreatine, 50 μg/ml creatine kinase, 10 μM cytochalasin B) for 2 h at 37° C. Nuclei were stained with propidium iodide ([…]) and analyzed by flow cytometry. For determination of caspase activation, cytosolic extracts (2 μg/μl) were incubated with mitochondria (1 μg/μl), cytochrome c (0.1-100 μM) or AIF-containing mitochondrial supernatant (0.5 μg/μl) in buffer D for 2 h at 37° C. […]
# Mitochondria isolated from SHEP cells, transfected with bcl-2 or bcl-XL or a neomycin resistance vector only, were incubated for 6 h with nuclei and 0.1-10 μg/ml betulinic acid (FIG. 8A) or 5 mM atractyloside (FIG. 8B) in the presence or absence of 50 μM bongkrekic acid or 60 μMZ-VAD-fnk. […] Nuclear apoptosis was determined by FACS analysis of propidium iodide stained DNA content.
# SHEP cells transfected with bcl-2 or bcl-XL or a neomycin resistance vector only were treated with 10 μg/ml betulinic acid or 5 mM atractyloside for 6-24 h (FIG. 8C). […] Nuclear apoptosis was determined by FACS analysis of propidium iodide stained DNA content. […]
smiles,measurement,value
"C=C(C)[C@@H]1CC[C@]2(C(=O)O)CC[C@]3(C)[C@H](CC[C@@H]4[C@@]5(C)CC[C@H](O)C(C)(C)[C@@H]5CC[C@]43C)[C@@H]12 [betulinic acid, 3β-3-hydroxylup-20(29)-en-28-oic acid]",nuclear fragmentation by mitochondria isolated from drug-pretreated cells,Nuclear fragmentation could also be induced; also recorded: induced nuclear DNA fragmentation
